# PubChem BioAssay AID652259, Drosophila RNAi Screening Center | 2013
# Purpose: 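Knock-downs that push a Wingless-driven reporter up or down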 (primary screen)
# Cells: Drosophila clone 8 imaginal disc epithelial cells
# Reagent: long dsRNA against Drosophila genes
# Challenge: pathway stimulated by co-transfected Wingless expression plasmid
# Measured: 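Firefly luciferase from a tcf-site Wingless reporter, measured alongside co-transfected Renilla luciferase that tracks transfection; pathway stimulated by a Wingless plasmid; the firefly-to-Renilla ratio is not deposited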
# Scale: firefly reporter light: higher = more Wg reporter light, before normalisation; Renilla control light: higher = more transfected or surviving cells
# Active means: 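a knock-down is a candidate when at least two out of four statistical tests show it departing from its plate mean; one test alone signals a weak candidate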
# Calls: active = candidate regulator (raises or lowers reporter); inactive = not a candidate
# In all, the deposit lists about 22,000 reagents; below is a random part of those that have a named target and a result. Over the whole deposit, 233 (1.1%) are marked active. 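Light values are raw, unnormalised plate reads; the ratio scores behind the reporter calls were not deposited.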 The record does not give: the amount of reagent, the time to read-out, the dose of the treatment.
gene,dsRNA,"reporter change call, replicate 1","firefly reporter light, replicate 1","firefly reporter light, replicate 2","Renilla control light, replicate 1","Renilla control light, replicate 2",outcome
CG42724,DRSC12567,,8057,,1203,,inactive
CG42724,DRSC22275,,5.95e5,6.96e5,2.46e5,2.70e5,inactive
CG17264,DRSC00500,,8292,,3635,,inactive
grnd,DRSC02020,,2880,5776,901,2851,inactive
Gtpx,DRSC08221,,12022,,5392,,inactive
Gtpx,DRSC22117,,4.54e5,4.31e5,1.94e5,2.46e5,inactive
CG8726,DRSC07250,,8247,,3032,,inactive
Ir76b,DRSC10831,,16316,,4904,,inactive
CG15888,DRSC15125,,17008,,4330,,inactive
CG42703,DRSC03973,,17968,,7738,,inactive
kcc,DRSC04316,,11891,,3783,,inactive
kcc,DRSC04516,,2633,5547,866,2262,inactive
aqz,DRSC16570,,28032,,5079,,inactive
CG42402,DRSC21116,,13581,,10038,,inactive
puc,DRSC17034,,14534,,3878,,inactive
CG6553,DRSC07002,,8292,,2519,,inactive
CG4594,DRSC02762,,5264,,2250,,inactive
CG13008,DRSC19527,,20883,,8977,,inactive
CG13008,DRSC19528,,15216,,8102,,inactive
CG4278,DRSC02741,,9976,,2948,,inactive
CG43052,DRSC03059,,3490,10002,1432,4080,inactive
Dus3,DRSC02059,,2061,8000,757,3216,inactive
CG12520,DRSC09892,,3892,,1840,,inactive
Takl1,DRSC13443,,3392,,1883,,inactive
CG32652 (retired record),DRSC18942,,4725,,1597,,inactive
CG32652 (retired record),DRSC22662,,6.23e5,7.06e5,3.06e5,3.87e5,inactive
Or85c,DRSC16766,,18016,,2768,,inactive
CG34109,DRSC02169,,3659,6168,1120,3296,inactive
CG34109,DRSC02224,,1930,6577,1008,2850,inactive
CG34109,DRSC02225,,2869,6189,1088,3552,inactive
CG11588,DRSC09145,,2733,,1529,,inactive
CG11588,DRSC09846,,9468,,4120,,inactive
CG43085,DRSC09497,,2097,,784,,inactive
Amy-d,DRSC05919,,7956,,2716,,inactive
CG32814,DRSC17670,,5274,,1469,,inactive
Obp57a,DRSC22047,,5.41e5,5.66e5,2.48e5,2.44e5,inactive
CG5883,DRSC10552,,6791,,2707,,inactive
Hs2st,DRSC03348,,9320,,3163,,inactive
CG13443,DRSC06403,,6596,,2428,,inactive
axo,DRSC08116,,3738,,1243,,inactive
axo,DRSC08324,,1484,12521,620,2840,inactive
axo,DRSC08326,,738,6528,288,1221,inactive
axo,DRSC21337,,3.44e5,3.78e5,1.94e5,1.35e5,inactive
Nlp,DRSC16759,Wg reporter activity lowered,2294,2625,1468,2279,active
CG12236,DRSC17830,Wg reporter activity raised,4544,10984,352,695,active
CG12236,DRSC17831,,13912,,7435,,inactive
alpha-Man-IIa,DRSC15393,,13888,,4229,,inactive
CG9114,DRSC20155,,23536,,10981,,inactive
ORMDL,DRSC11737,,14032,,6834,,inactive
pds5,DRSC06670,,5537,,2320,,inactive
bs,DRSC04676,Wg reporter activity raised,4347,11179,1312,3954,active
crp,DRSC03515,,2706,4277,866,1449,inactive
CG4374,DRSC15570,,24621,,20544,,inactive
bru3,DRSC09280,,4474,,2195,,inactive
bru3,DRSC09291,,3506,,443,,inactive
bru3,DRSC09292,,4748,,690,,inactive
bru3,DRSC09687,,7233,,2555,,inactive
bru3,DRSC09887,,4310,,1802,,inactive
bru3,DRSC22732,,5.36e5,5.65e5,1.65e5,1.65e5,inactive
Npc2f,DRSC15980,,2311,7653,1296,1949,inactive
RnpS1,DRSC15154,,13333,,2023,,inactive
CG33288,DRSC11484,,4012,,1381,,inactive
Cyp12a4,DRSC16620,,9184,,2192,,inactive
CG31548,DRSC22640,,6.85e5,6.43e5,3.47e5,68,inactive
Tsen34,DRSC22932,,6.79e5,5.86e5,2.85e5,2.79e5,inactive
Tlk,DRSC17281,,3184,,892,,inactive
Tlk,DRSC17731,,21840,,7681,,inactive
Tlk,DRSC17835,,12491,,7372,,inactive
Tlk,DRSC22924,,8.56e5,9.34e5,1.43e5,83753,inactive
Tlk,DRSC22926,,4.97e5,5.67e5,1.10e5,97475,inactive
Tlk,DRSC22938,,7.28e5,7.60e5,2.29e5,2.14e5,inactive
SP1173,DRSC11277,,3858,,1380,,inactive
CG30384,DRSC06032,,2402,6115,660,2929,inactive

10 of these entries, reformatted.
CG43052 [DRSC03059]: firefly reporter light, replicate 1 = 3490; firefly reporter light, replicate 2 = 10002; Renilla control light, replicate 1 = 1432; Renilla control light, replicate 2 = 4080; outcome = inactive
Dus3 [DRSC02059]: firefly reporter light, replicate 1 = 2061; firefly reporter light, replicate 2 = 8000; Renilla control light, replicate 1 = 757; Renilla control light, replicate 2 = 3216; outcome = inactive
CG12520 [DRSC09892]: firefly reporter light, replicate 1 = 3892; Renilla control light, replicate 1 = 1840; outcome = inactive
Takl1 [DRSC13443]: firefly reporter light, replicate 1 = 3392; Renilla control light, replicate 1 = 1883; outcome = inactive
CG32652 (retired record) [DRSC18942]: firefly reporter light, replicate 1 = 4725; Renilla control light, replicate 1 = 1597; outcome = inactive
CG32652 (retired record) [DRSC22662]: firefly reporter light, replicate 1 = 6.23e5; firefly reporter light, replicate 2 = 7.06e5; Renilla control light, replicate 1 = 3.06e5; Renilla control light, replicate 2 = 3.87e5; outcome = inactive
Or85c [DRSC16766]: firefly reporter light, replicate 1 = 18016; Renilla control light, replicate 1 = 2768; outcome = inactive
CG34109 [DRSC02169]: firefly reporter light, replicate 1 = 3659; firefly reporter light, replicate 2 = 6168; Renilla control light, replicate 1 = 1120; Renilla control light, replicate 2 = 3296; outcome = inactive
CG34109 [DRSC02224]: firefly reporter light, replicate 1 = 1930; firefly reporter light, replicate 2 = 6577; Renilla control light, replicate 1 = 1008; Renilla control light, replicate 2 = 2850; outcome = inactive
CG34109 [DRSC02225]: firefly reporter light, replicate 1 = 2869; firefly reporter light, replicate 2 = 6189; Renilla control light, replicate 1 = 1088; Renilla control light, replicate 2 = 3552; outcome = inactive
